# From PubChem BioAssay AID687028 (Broad Institute, 2013)
# About 55 (4%) of roughly 1,400 compounds were called active. The shares of active, inactive and inconclusive entries below differ from those in the screen. How the calls were made is not given here.
# Assay: A549 cell toxicity, dose response, cytotoxicity control, plate reader, cherry-pick samples (AID 687028);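 further: cells incubated with compound for three days before reading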
# Details: at 19.5 µM (top of the series)
row,Compound,"activity change, negative = toxicity"
1,Cc1ccc2[nH]c(-c3ccccc3)cc(=O)c2c1,inconclusive: -31.2%
2,COc1ccc(C2=Nn3c(nnc3-c3ccccc3OC)SC2)cc1OCC1CC1,inconclusive: -33.2%
3,CC(C)(C)OC(=O)N[C@H]1C=C[C@@H](CC(=O)OCC(F)(F)F)C1,inactive: 2.97%
4,CCCn1c(NCc2ccc(N(C)C)cc2)nc2ccccc21,inactive: 3.28%
